Test results taken from paper PMC8326132.
No constants are given. Whether binding was seen depends on the method and setting. In cells and extracts the contact can be indirect. Some binding calls cover weakened binding; strength is not graded here.

Sequences of proteins named here, by UniProt entry; tags and fusion partners are left off. Residues count along the entry.
UniProt Q9Y6M1: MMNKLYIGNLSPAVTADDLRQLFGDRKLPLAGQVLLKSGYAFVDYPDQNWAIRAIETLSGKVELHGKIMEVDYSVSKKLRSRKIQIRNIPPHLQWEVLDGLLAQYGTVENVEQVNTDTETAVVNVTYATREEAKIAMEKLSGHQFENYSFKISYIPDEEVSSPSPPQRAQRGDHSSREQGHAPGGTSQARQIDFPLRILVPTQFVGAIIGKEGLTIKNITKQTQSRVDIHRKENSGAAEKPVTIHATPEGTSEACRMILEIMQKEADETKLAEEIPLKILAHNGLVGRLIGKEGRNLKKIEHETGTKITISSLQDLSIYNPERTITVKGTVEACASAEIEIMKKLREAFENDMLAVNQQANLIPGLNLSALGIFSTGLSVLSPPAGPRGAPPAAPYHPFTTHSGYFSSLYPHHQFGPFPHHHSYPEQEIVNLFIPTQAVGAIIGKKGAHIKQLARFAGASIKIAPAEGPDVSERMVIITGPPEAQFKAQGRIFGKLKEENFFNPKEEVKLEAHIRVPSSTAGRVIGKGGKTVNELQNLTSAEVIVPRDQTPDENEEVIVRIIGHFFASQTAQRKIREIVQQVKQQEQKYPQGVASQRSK
UniProt P63165, residues 1-97: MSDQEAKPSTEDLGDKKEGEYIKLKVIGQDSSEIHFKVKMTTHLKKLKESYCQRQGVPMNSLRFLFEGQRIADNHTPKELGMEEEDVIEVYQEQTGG

Key:
[1] = target: Insulin-like growth factor 2 mRNA-binding protein 2 (IGF2BP2), endogenous (human (endogenous in HEK293T, U87 and U251)) (UniProt Q9Y6M1); assay: co-IP; lysates of U87 and U251 glioma cells; IP with anti-SUMO1, anti-IGF2BP2 or anti-IgG; western blot with anti-IGF2BP2 and anti-SUMO1
[2] = target: Insulin-like growth factor 2 mRNA-binding protein 2 (IGF2BP2), endogenous (human (endogenous in HEK293T, U87 and U251)) (UniProt Q9Y6M1); assay: co-IP; lysates of HEK293T cells stably transfected with sh-NC, SENP1 knockdown or Ubc9 knockdown; IP with anti-SUMO1, anti-IGF2BP2 or normal IgG; western blot with anti-IGF2BP2 and anti-SUMO1

SUMO1 (small molecule ubiquitin-like modifier 1), endogenous (from UniProt P63165 1-97)
binding [1]: binds | binding [2]: binds
